Test results from paper doi:10.1101/2020.09.24.311712.
The exact form of at least one protein or probe is not confirmed. A weaker result is weaker than the reference pair of the same experiment. At least one verdict was read from the data and is not stated in words by the source.

Chains of the proteins cited; added tags and fusions are not shown. Lines headed by an entry give the natural chain unless they say otherwise; changes in a name come on top.
UniProt O43474: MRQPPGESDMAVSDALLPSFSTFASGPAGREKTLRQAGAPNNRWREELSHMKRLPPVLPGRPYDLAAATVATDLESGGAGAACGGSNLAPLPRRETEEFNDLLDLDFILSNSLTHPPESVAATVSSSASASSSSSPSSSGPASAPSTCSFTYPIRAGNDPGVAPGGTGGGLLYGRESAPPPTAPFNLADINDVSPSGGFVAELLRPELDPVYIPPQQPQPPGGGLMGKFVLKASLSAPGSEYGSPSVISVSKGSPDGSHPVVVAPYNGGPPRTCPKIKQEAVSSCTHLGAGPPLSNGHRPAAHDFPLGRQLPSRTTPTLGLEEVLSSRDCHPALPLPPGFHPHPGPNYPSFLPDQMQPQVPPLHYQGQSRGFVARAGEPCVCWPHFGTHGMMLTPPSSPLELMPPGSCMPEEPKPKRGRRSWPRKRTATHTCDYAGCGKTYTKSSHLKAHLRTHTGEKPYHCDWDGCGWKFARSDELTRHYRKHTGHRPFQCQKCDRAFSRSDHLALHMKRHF

What was measured:
[1] = target: MBP-Klf4-GFP (Homo sapiens) (UniProt O43474); test: EMSA; details: poly-d(IC) 37.5 ng, Kd value not in material
Klf4-GFP (Homo sapiens) = Klf4-GFP (Homo sapiens) (UniProt O43474); test: EMSA; details: poly-d(IC) 37.5 ng, Kd value not in material

“CCGCTCTCGGATCGGGC (double strand) [Klf4 unspecific dsDNA EMSA]”: binds more weakly [1]; binds more weakly (Klf4-GFP (Homo sapiens)).
